The results in this text go back to article PMC4721963.

Protein sequences, listed by entry. Tags and fused reporters are not part of them.
UniProt Q13619: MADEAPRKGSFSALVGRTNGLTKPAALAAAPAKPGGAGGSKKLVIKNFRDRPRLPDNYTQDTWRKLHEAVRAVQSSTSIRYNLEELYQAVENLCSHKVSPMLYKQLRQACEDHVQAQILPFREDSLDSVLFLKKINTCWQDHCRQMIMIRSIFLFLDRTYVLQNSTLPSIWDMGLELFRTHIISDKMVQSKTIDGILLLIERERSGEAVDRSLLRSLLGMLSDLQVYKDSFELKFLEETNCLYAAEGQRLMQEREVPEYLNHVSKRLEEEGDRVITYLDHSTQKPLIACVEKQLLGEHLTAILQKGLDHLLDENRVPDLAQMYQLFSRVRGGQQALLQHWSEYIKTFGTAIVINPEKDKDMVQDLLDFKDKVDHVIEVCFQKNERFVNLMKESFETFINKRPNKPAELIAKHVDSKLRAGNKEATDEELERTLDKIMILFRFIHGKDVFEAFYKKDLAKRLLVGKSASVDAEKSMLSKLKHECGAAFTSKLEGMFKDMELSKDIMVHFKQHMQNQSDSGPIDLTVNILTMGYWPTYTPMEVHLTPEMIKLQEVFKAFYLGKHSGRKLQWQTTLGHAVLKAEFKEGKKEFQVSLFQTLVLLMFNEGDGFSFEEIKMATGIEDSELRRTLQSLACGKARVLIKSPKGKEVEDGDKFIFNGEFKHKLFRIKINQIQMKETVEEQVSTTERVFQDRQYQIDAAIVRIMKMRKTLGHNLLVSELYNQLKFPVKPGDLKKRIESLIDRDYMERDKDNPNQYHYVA
UniProt P38936: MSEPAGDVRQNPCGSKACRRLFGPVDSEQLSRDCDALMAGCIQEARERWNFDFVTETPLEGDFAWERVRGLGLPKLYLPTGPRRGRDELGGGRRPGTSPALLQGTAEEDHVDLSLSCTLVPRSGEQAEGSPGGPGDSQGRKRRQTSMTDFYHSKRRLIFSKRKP
UniProt P46527: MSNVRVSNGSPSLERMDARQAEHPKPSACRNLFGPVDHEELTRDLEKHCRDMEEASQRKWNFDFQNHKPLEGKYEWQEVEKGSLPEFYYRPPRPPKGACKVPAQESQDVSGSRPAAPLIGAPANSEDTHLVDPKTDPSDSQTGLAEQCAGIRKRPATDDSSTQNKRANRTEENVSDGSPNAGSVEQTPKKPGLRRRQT

These are yes or no findings as the source states them, for the method shown. Binding seen in cells or lysates may run through a third protein. Some results given as binding are weak or reduced against the parent protein; the word gives no strength.

The target in the test is Myc-tagged Cul4a (UniProt Q13619). As to the kind of experiment: co-IP; 293T cells transiently co-transfected with Myc-tagged Cul4a and Cdkn1a^cip1 (or p27^kip1); lysed 48 h after transfection; lysates immunoprecipitated with anti-Myc antibody, Western blot.

As for “Cdkn1a^cip1 (cyclin-dependent kinase inhibitor 1A) (from UniProt P38936 1-164)”, the binding result is “binds”. For the substance p27^kip1 (from UniProt P46527 1-198), the binding result is recorded as “no binding”.
